Data: paper PMC5007978, “A chemical with proven clinical safety rescues Down-syndrome-related phenotypes in through DYRK1A inhibition” (Disease Models & Mechanisms, 2016)

The chains behind the UniProt entries cited, without tags or fusion partners.
UniProt Q9Y463, whole entry: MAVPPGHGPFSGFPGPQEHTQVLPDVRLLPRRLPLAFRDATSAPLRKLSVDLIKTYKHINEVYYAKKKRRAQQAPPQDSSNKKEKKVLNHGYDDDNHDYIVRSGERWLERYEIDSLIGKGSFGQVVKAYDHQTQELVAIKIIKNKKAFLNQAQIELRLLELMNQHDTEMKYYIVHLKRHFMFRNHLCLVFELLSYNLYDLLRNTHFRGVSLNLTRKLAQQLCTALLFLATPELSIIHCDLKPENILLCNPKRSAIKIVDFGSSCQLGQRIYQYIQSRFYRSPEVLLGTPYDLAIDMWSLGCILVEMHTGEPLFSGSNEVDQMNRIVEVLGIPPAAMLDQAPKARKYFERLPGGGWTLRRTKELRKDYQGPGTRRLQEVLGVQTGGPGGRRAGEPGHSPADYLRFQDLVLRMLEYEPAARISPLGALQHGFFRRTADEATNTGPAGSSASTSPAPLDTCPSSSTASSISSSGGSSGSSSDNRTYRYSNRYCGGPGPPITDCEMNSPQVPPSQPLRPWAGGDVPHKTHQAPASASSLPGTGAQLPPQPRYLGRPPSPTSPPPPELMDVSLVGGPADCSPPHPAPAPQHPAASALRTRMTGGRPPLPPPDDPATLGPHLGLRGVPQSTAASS

Biological target: T1, DYRK1B (Homo sapiens, UniProt Q9Y463)
T1 construct: purchased Life Technologies (Kinase Profiler service)
Test: In vitro kinase assay, recombinant human DYRK1B (Life Technologies)
Assay type: biochemical

## COc1ccc2c(c1)[nH]c1c(C)nccc12 [harmine]
  IC50: 152 nM
